# The other results are listed elsewhere or left out.
# B1: RsaA-N-term (Caulobacter crescentus), P35828 (protein)
# chain: MAYTTAQLVTAYTNANLGKAPDAATTLTLDAYATQTQTGGLSDAAALTNTLKLVNSTTAVAIQTYQFFTGVAPSAAGLDFLVDSTTNTNDLNDAYYSKFAQENRFINFSINLATGAGAGATAFAAAYTGVSYAQTVATAYDKIIGNAVATAAGVDVAAAVAFLSRQANIDYLTAFVRANTPFTAAADIDLAVKAALIGTILNAATVSGIGGYATATAAMINDLSDGALSTDNAAGVNLFTAYPSSGVSGSTLSLTTGTDTLTGTANNDTFVAGEVAGDGSGWSHPQFEKGG
# How the values were obtained:
# Test in all cases: glycan array binding signal (z-score within array); higher = stronger binding
# Conditions in all cases: glycan notation: IUPAC condensed, linker removed
# [1] = molecular target: Neu5Ac(a2-6)Gal(b1-4)GlcNAc(b1-2)Man(a1-3)[Man(a1-6)]Man(b1-4)GlcNAc(b1-4)GlcNAc
# Outline: (§1)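 Glycan array data came from 3228 arrays in the Consortium for Functional Glycomics database, and only arrays with an available protein sequence were kept. Glycan names were put into IUPAC-condensed notation, and columns mapping to the same glycan were averaged. The binding signal is a within-array Z-score, averaged across arrays of one protein sequence run at different concentrations or buffers and across linkers. A negative Z-score can be read as non-binding.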
# [2] = molecular target: Neu5Ac(a2-6)Gal(b1-4)GlcNAc(b1-2)Man(a1-3)[Neu5Ac(a2-3)Gal(b1-4)GlcNAc(b1-2)Man(a1-6)]Man(b1-4)GlcNAc(b1-4)GlcNAc
# Outline: as §1
# [3] = molecular target: Neu5Ac(a2-6)Gal(b1-4)GlcNAc(b1-2)Man(a1-3)[Neu5Ac(a2-6)Gal(b1-4)GlcNAc(b1-2)Man(a1-6)]Man(b1-4)GlcNAc(b1-4)GlcNAc
# Outline: as §1
# [4] = molecular target: Neu5Ac(a2-6)Gal(b1-4)GlcNAc(b1-2)Man(a1-3)[Neu5Ac(a2-6)Gal(b1-4)GlcNAc(b1-2)Man(a1-6)]Man(b1-4)GlcNAc(b1-4)[Fuc(a1-6)]GlcNAc
# Outline: as §1
# [5] = molecular target: Neu5Ac(a2-6)Gal(b1-4)GlcNAc(b1-2)Man(a1-6)Man(b1-4)GlcNAc(b1-4)GlcNAc
# Outline: as §1
# [6] = molecular target: Neu5Ac(a2-6)Gal(b1-4)GlcNAc(b1-2)Man(a1-6)[Gal(b1-4)GlcNAc(b1-2)Man(a1-3)]Man(b1-4)GlcNAc(b1-4)GlcNAc
# Outline: as §1
# [7] = molecular target: Neu5Ac(a2-6)Gal(b1-4)GlcNAc(b1-2)Man(a1-6)[GlcNAc(b1-2)Man(a1-3)]Man(b1-4)GlcNAc(b1-4)GlcNAc
# Outline: as §1
# [8] = molecular target: Neu5Ac(a2-6)Gal(b1-4)GlcNAc(b1-2)Man(a1-6)[Man(a1-3)]Man(b1-4)GlcNAc(b1-4)GlcNAc
# Outline: as §1
# [9] = molecular target: Neu5Ac(a2-6)Gal(b1-4)GlcNAc(b1-2)[Neu5Ac(a2-6)Gal(b1-4)GlcNAc(b1-4)]Man(a1-3)[GlcNAc(b1-4)][Neu5Ac(a2-6)Gal(b1-4)GlcNAc(b1-2)[Neu5Ac(a2-6)Gal(b1-4)GlcNAc(b1-6)]Man(a1-6)]Man(b1-4)GlcNAc(b1-4)GlcNAc
# Outline: as §1
# [10] = molecular target: Neu5Ac(a2-6)Gal(b1-4)GlcNAc(b1-2)[Neu5Ac(a2-6)Gal(b1-4)GlcNAc(b1-4)]Man(a1-3)[GlcNAc(b1-4)][Neu5Ac(a2-6)Gal(b1-4)GlcNAc(b1-4)Man(a1-6)]Man(b1-4)GlcNAc(b1-4)GlcNAc
# Outline: as §1
# [11] = molecular target: Neu5Ac(a2-6)Gal(b1-4)GlcNAc(b1-2)[Neu5Ac(a2-6)Gal(b1-4)GlcNAc(b1-6)]Man(a1-6)[Neu5Ac(a2-6)Gal(b1-4)GlcNAc(b1-2)Man(a1-3)][GlcNAc(b1-4)]Man(b1-4)GlcNAc(b1-4)GlcNAc
# Outline: as §1
# [12] = molecular target: Neu5Ac(a2-6)Gal(b1-4)GlcNAc(b1-3)Gal(b1-3)GlcNAc
# Outline: as §1
# [13] = molecular target: Neu5Ac(a2-6)Gal(b1-4)GlcNAc(b1-3)Gal(b1-4)GlcNAc
# Outline: as §1
# [14] = molecular target: Neu5Ac(a2-6)Gal(b1-4)GlcNAc(b1-3)Gal(b1-4)GlcNAc(b1-2)Man(a1-3)[Neu5Ac(a2-6)Gal(b1-4)GlcNAc(b1-3)Gal(b1-4)GlcNAc(b1-2)Man(a1-6)]GalNAc
# Outline: as §1
# [15] = molecular target: Neu5Ac(a2-6)Gal(b1-4)GlcNAc(b1-3)Gal(b1-4)GlcNAc(b1-3)Gal(b1-4)GlcNAc
# Outline: as §1
# [16] = molecular target: Neu5Ac(a2-6)Gal(b1-4)GlcNAc(b1-3)Gal(b1-4)GlcNAc(b1-3)Gal(b1-4)GlcNAc(b1-2)Man(a1-3)[Neu5Ac(a2-6)Gal(b1-4)GlcNAc(b1-3)Gal(b1-4)GlcNAc(b1-3)Gal(b1-4)GlcNAc(b1-2)Man(a1-6)]GalNAc
# Outline: as §1
# [17] = molecular target: Neu5Ac(a2-6)Gal(b1-4)GlcNAc(b1-3)Gal(b1-4)GlcNAc(b1-3)GalNAc
# Outline: as §1
# [18] = molecular target: Neu5Ac(a2-6)Gal(b1-4)GlcNAc(b1-3)Gal(b1-4)GlcNAc(b1-3)[Neu5Ac(a2-6)Gal(b1-4)GlcNAc(b1-3)Gal(b1-4)GlcNAc(b1-6)]GalNAc
# Outline: as §1
# [19] = molecular target: Neu5Ac(a2-6)Gal(b1-4)GlcNAc(b1-3)Gal(b1-4)GlcNAc(b1-6)[Gal(b1-3)]GalNAc
# Outline: as §1
# [20] = molecular target: Neu5Ac(a2-6)Gal(b1-4)GlcNAc(b1-3)Gal(b1-4)[Fuc(a1-3)]GlcNAc(b1-3)Gal(b1-4)[Fuc(a1-3)]GlcNAc
# Outline: as §1
# [21] = molecular target: Neu5Ac(a2-6)Gal(b1-4)GlcNAc(b1-3)GalNAc
# Outline: as §1
# [22] = molecular target: Neu5Ac(a2-6)Gal(b1-4)GlcNAc(b1-3)[Neu5Ac(a2-6)Gal(b1-4)GlcNAc(b1-6)]GalNAc
# Outline: as §1
# [23] = molecular target: Neu5Ac(a2-6)Gal(b1-4)GlcNAc(b1-6)GalNAc
# Outline: as §1
# [24] = molecular target: Neu5Ac(a2-6)Gal(b1-4)GlcNAc(b1-6)[Gal(b1-3)GlcNAc(b1-3)]Gal(b1-4)Glc
# Outline: as §1
# [25] = molecular target: Neu5Ac(a2-6)Gal(b1-4)GlcNAc(b1-6)[Gal(b1-3)]GalNAc
# Outline: as §1
# [26] = molecular target: Neu5Ac(a2-6)Gal(b1-4)GlcNAc6S
# Outline: as §1
# Neu5Ac(a2-6)GalNAc = molecular target: Neu5Ac(a2-6)GalNAc
# Outline: as §1
# [27] = molecular target: Neu5Ac(a2-6)GalNAc(b1-4)GlcNAc
# Outline: as §1
# [28] = molecular target: Neu5Ac(a2-6)GalNAc(b1-4)GlcNAc6S
# Outline: as §1
# [29] = molecular target: Neu5Ac(a2-6)GlcNAc(b1-4)GlcNAc
# Outline: as §1
# [30] = molecular target: Neu5Ac(a2-6)GlcNAc(b1-4)GlcNAc(b1-4)GlcNAc
# Outline: as §1
binder,measurement,setting,value
B1,glycan array binding signal (z-score),[1],0.035
same,glycan array binding signal (z-score),[2],2.79
same,glycan array binding signal (z-score),[3],0.398
same,glycan array binding signal (z-score),[4],-0.211
same,glycan array binding signal (z-score),[5],-0.707
same,glycan array binding signal (z-score),[6],-0.04
same,glycan array binding signal (z-score),[7],0.365
same,glycan array binding signal (z-score),[8],1.88
same,glycan array binding signal (z-score),[9],0.403
same,glycan array binding signal (z-score),[10],0.254
same,glycan array binding signal (z-score),[11],-0.876
same,glycan array binding signal (z-score),[12],-0.356
same,glycan array binding signal (z-score),[13],0.583
same,glycan array binding signal (z-score),[14],-1.33
same,glycan array binding signal (z-score),[15],0.431
same,glycan array binding signal (z-score),[16],-0.611
same,glycan array binding signal (z-score),[17],0.299
same,glycan array binding signal (z-score),[18],-0.68
same,glycan array binding signal (z-score),[19],0.378
same,glycan array binding signal (z-score),[20],-0.813
same,glycan array binding signal (z-score),[21],-0.946
same,glycan array binding signal (z-score),[22],-0.254
same,glycan array binding signal (z-score),[23],0.243
same,glycan array binding signal (z-score),[24],1.12
same,glycan array binding signal (z-score),[25],-0.134
same,glycan array binding signal (z-score),[26],0.208
same,glycan array binding signal (z-score),Neu5Ac(a2-6)GalNAc,2.17
same,glycan array binding signal (z-score),[27],-0.593
same,glycan array binding signal (z-score),[28],-0.147
same,glycan array binding signal (z-score),[29],0.512
same,glycan array binding signal (z-score),[30],1.03

# A second format for some results above.
binder | measurement | setting | value
B1 | glycan array binding signal (z-score) | [20] | -0.813
same | glycan array binding signal (z-score) | [21] | -0.946
same | glycan array binding signal (z-score) | [22] | -0.254
same | glycan array binding signal (z-score) | [23] | 0.243
same | glycan array binding signal (z-score) | [24] | 1.12
same | glycan array binding signal (z-score) | [25] | -0.134
same | glycan array binding signal (z-score) | [26] | 0.208
same | glycan array binding signal (z-score) | Neu5Ac(a2-6)GalNAc | 2.17

# Source: the supplement of paper PMC8728848
